Measurements reported in PubChem BioAssay AID1159578 (Peter MacCallum Cancer Centre, 2015)

Screen: 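Genome-wide hunt for genes controlling movement of lymphatic endothelial cells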 (primary screen)
System: human lymphatic endothelial cells
Knock-down reagent: siRNA pool against human genes, 40 nM
Timing: 48 h after transfection
Detection: 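Cells stained with dye and imaged after a scratch; covered wound area and nuclei counted, duplicates averaged, migration set against mock wells and turned into a robust z-score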
Scale: migration robust z-score: higher = faster migration into the scratch; nuclei per well: higher = more cells in the well
Active means: 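Migration changed when robust z exceeds 2 or falls below -2 and mean nuclei number is at least 3300; otherwise not called changed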
Calls: active = migration changed; inactive = no migration change, or too few cells
This is one part, drawn at random, of about 18,000 reagents tested. In the full data, about 1,030 (5.7%) were called active. 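Inactive calls also include pools with fewer than 3300 nuclei, whose migration was not assessed.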 The raw values are shown without normalisation. Further read-outs or replicates are left out here.

target | migration robust z-score | nuclei per well, duplicate mean | Call
RPL19P9 (ribosomal protein L19 pseudogene 9) | -1.68 | 4066 | inactive
TEC (tec protein tyrosine kinase) | -1.77 | 3067 | inactive
FOCAD (focadhesin) | -0.78 | 5366 | inactive
MYPN (myopalladin) | -0.07 | 6256 | inactive
GTF2B (general transcription factor IIB) | 2.21 | 5866 | active
LINGO1 (leucine rich repeat and Ig domain containing 1) | 0.68 | 6646 | inactive
LNP1 (leukemia NUP98 fusion partner 1) | 0.38 | 6018 | inactive
ELOVL4 (ELOVL fatty acid elongase 4) | -0.73 | 3845 | inactive
PLA2G4A (phospholipase A2 group IVA) | -2.96 | 2718 | inactive
MPPED1 (metallophosphoesterase domain containing 1) | 2.17 | 5837 | active
FZD3 (frizzled class receptor 3) | 1.61 | 5497 | inactive
SLC46A2 | -0.24 | 5325 | inactive
BARX1 (BARX homeobox 1) | -0.91 | 3610 | inactive
S100A9 (S100 calcium binding protein A9) | 0.24 | 7002 | inactive
ATP6V0C (ATPase H+ transporting V0 subunit c) | -1.07 | 5950 | inactive
ERICH5 (glutamate rich 5) | 0.26 | 6359 | inactive
CST4 (cystatin S) | 0.29 | 5616 | inactive
STING1 (stimulator of interferon response cGAMP interactor 1) | -0.2 | 5800 | inactive
SSH1 (slingshot protein phosphatase 1) | -0.16 | 5406 | inactive
AKAP14 (A-kinase anchoring protein 14) | 0.26 | 4676 | inactive
DUSP19 (dual specificity phosphatase 19) | 1.58 | 6167 | inactive
NHERF2 (NHERF family PDZ scaffold protein 2) | 0.23 | 6170 | inactive
TAS2R14 (taste 2 receptor member 14) | -0.17 | 5624 | inactive
AKR1A1 (aldo-keto reductase family 1 member A1) | 0.91 | 6954 | inactive
ARL10 (ARF like GTPase 10) | -0.08 | 5694 | inactive
CABIN1 (calcineurin binding protein 1) | 0.54 | 5483 | inactive
PPP2R5D (protein phosphatase 2 regulatory subunit B'delta) | -0.64 | 4855 | inactive
CRABP2 (cellular retinoic acid binding protein 2) | -2.72 | 4133 | active
ROPN1B (rhophilin associated tail protein 1B) | 0.54 | 7034 | inactive
OCIAD2 (OCIA domain containing 2) | -0.12 | 6001 | inactive
TBC1D28 (TBC1 domain family member 28) | 1.37 | 3648 | inactive
SF3A2 (splicing factor 3a subunit 2) | -0.72 | 5168 | inactive
ETS2-AS1 (ETS2 antisense RNA 1) | -0.74 | 4857 | inactive
GCLC (glutamate-cysteine ligase catalytic subunit) | 0.1 | 7237 | inactive
FAM234B (family with sequence similarity 234 member B) | -0.06 | 4439 | inactive
NECAB3 (N-terminal EF-hand calcium binding protein 3) | 0.44 | 6829 | inactive
C19orf53 (chromosome 19 open reading frame 53) | 1.75 | 6259 | inactive
MICALL2 (MICAL like 2) | -0.69 | 5010 | inactive
PPP1R14D (protein phosphatase 1 regulatory inhibitor subunit 14D) | 0.84 | 6478 | inactive
HES2 (hes family bHLH transcription factor 2) | 0.44 | 5554 | inactive
SLC30A2 | -1.53 | 4827 | inactive
C1QTNF6 (C1q and TNF related 6) | -0.62 | 5454 | inactive
WFDC6 (WAP four-disulfide core domain 6) | -0.48 | 5822 | inactive
HMBOX1 (homeobox containing 1) | 0.82 | 6280 | inactive
SGPP1 (sphingosine-1-phosphate phosphatase 1) | 1.25 | 7058 | inactive
STARD10 (StAR related lipid transfer domain containing 10) | -0.3 | 7450 | inactive
N4BP2L1 (NEDD4 binding protein 2 like 1) | 0.88 | 5996 | inactive
LGALSL (galectin like) | 0.44 | 5191 | inactive
SERPINB3 (serpin family B member 3) | -0.5 | 5692 | inactive
SLC71A2 | -1.54 | 7326 | inactive
YBX3 (Y-box binding protein 3) | 0.29 | 4179 | inactive
SMOX (spermine oxidase) | 0.34 | 5747 | inactive
PPFIBP2 (PPFIB scaffold protein 2) | 0.18 | 5166 | inactive
PUS7 (pseudouridine synthase 7) | -0.08 | 5704 | inactive
HOXA11 (homeobox A11) | -0.08 | 7056 | inactive
MRPS27 (mitochondrial ribosomal protein S27) | 0.19 | 5582 | inactive
HOXD10 (homeobox D10) | 0.68 | 6220 | inactive
TEDDM1 (transmembrane epididymal protein 1) | -0.99 | 6592 | inactive
ITPRIP (inositol 1,4,5-trisphosphate receptor interacting protein) | 1.5 | 6071 | inactive
BCS1L (BCS1 ubiquinol-cytochrome c reductase complex chaperone) | -0.11 | 5716 | inactive
GPR35 (G protein-coupled receptor 35) | -2.05 | 5969 | active
DUSP5 (dual specificity phosphatase 5) | -0.86 | 6051 | inactive
UBXN8 (UBX domain protein 8) | -0.32 | 5852 | inactive
SEZ6L2 (seizure related 6 homolog like 2) | -0.62 | 5840 | inactive
NFIC (nuclear factor I C) | 1.2 | 5768 | inactive
YPEL5 (yippee like 5) | -0.54 | 5530 | inactive
SNCB (synuclein beta) | 0.14 | 4788 | inactive
ZNF75D (zinc finger protein 75D) | -0.18 | 6334 | inactive
LST1 (leukocyte specific transcript 1) | 0.73 | 4984 | inactive
EMP1 (epithelial membrane protein 1) | 0.06 | 6463 | inactive
DAZL (deleted in azoospermia like) | 1.5 | 5387 | inactive
DBF4 (DBF4-CDC7 kinase regulatory subunit) | -0.78 | 5038 | inactive
IP6K2 (inositol hexakisphosphate kinase 2) | 0.18 | 5112 | inactive

Not a retest: entries from further up.
target | migration robust z-score | nuclei per well, duplicate mean | Call
STING1 (stimulator of interferon response cGAMP interactor 1) | -0.2 | 5800 | inactive
SSH1 (slingshot protein phosphatase 1) | -0.16 | 5406 | inactive
AKAP14 (A-kinase anchoring protein 14) | 0.26 | 4676 | inactive
DUSP19 (dual specificity phosphatase 19) | 1.58 | 6167 | inactive
NHERF2 (NHERF family PDZ scaffold protein 2) | 0.23 | 6170 | inactive
TAS2R14 (taste 2 receptor member 14) | -0.17 | 5624 | inactive
AKR1A1 (aldo-keto reductase family 1 member A1) | 0.91 | 6954 | inactive
ARL10 (ARF like GTPase 10) | -0.08 | 5694 | inactive
CABIN1 (calcineurin binding protein 1) | 0.54 | 5483 | inactive
